The list does not hold the whole screen: it gathers tests that were run many times, whatever their T/C, doses with no T/C, and many T/C values between a quarter and a half above the control. Other doses and runs of a compound stand elsewhere. T/C gives the treated animals as a percentage of the vehicle group. Some doses have a count of surviving animals in place of a T/C: the source files T/C as zero there, which appears to mark a toxic dose or a test without result, not a measured value. Some survivor counts are full or nearly so, which does not show that the dose was tolerated: the source hardly ever lists a survival T/C far under the control, and the zero likely stands for such cases as well. Survivors were counted at the toxicity check, usually on the fifth day, unless a day is given; later deaths do not show. Schedules are NCI's codes, read here as Q, the interval in days (D) or hours (H), X, the number of doses. Some schedules carry Z or #; the key to these is not given. For survival time, the PubChem record calls one and a half times the control and up active, and a quarter to a half above the control has no call in these data; cut-offs in other NCI protocols can differ. Some T/C values carry the count of animals alive at the toxicity check (mostly the fifth day); without a count, all were alive then.
Test system: L1210 leukemia ip in BDF1 mice, survival T/C
Test: NCI In Vivo Anticancer Drug Screen. Data for tumor model L1210 Leukemia (intraperitoneal) in B6D2F1 (BDF1) mice
Conditions: T/C endpoint: mean survival time, higher T/C = longer survival
[1] = dose: 400.0 mg/kg/injection, schedule: Q01DX009 (ip), vehicle: Klucel (hydroxypropylcellulose) (HPC)
[2] = dose: 400.0 mg/kg/injection, schedule: Q04DX002 (ip), vehicle: saline
[3] = dose: 100.0 mg/kg/injection, schedule: Q04DX003 (ip), vehicle: Klucel (hydroxypropylcellulose) (HPC)
[4] = dose: 200.0 mg/kg/injection, schedule: Q04DX003 (ip), vehicle: Klucel (hydroxypropylcellulose) (HPC)
[5] = dose: 400.0 mg/kg/injection, schedule: Q04DX003 (ip), vehicle: Klucel (hydroxypropylcellulose) (HPC)
[6] = dose: 100.0 mg/kg/injection, schedule: Q04DX003 (ip), vehicle: saline
[7] = dose: 200.0 mg/kg/injection, schedule: Q04DX003 (ip), vehicle: saline
[8] = dose: 400.0 mg/kg/injection, schedule: Q04DX003 (ip), vehicle: saline
[9] = dose: 400.0 mg/kg/injection, schedule: Q01DX001 (ip), vehicle: carboxymethylcellulose (CMC)

Q: For `CCOC(=O)/C(C(C)=O)=C(/O)c1ccc(OC(F)(F)C(F)Cl)cc1OC(F)(F)C(F)Cl.CCOC(=O)/C(C(C)=O)=C(/O)c1ccc(OC(F)(F)C(F)Cl)cc1OC(F)(F)C(F)Cl.[Cu]` (configuration not stated), which survivor count [1] is on record?
A: The survivor count was 6 of 6.

Q: With `O=C(O)/C(I)=C(\I)C(=O)O` as the compound, how does the survivor count [2] read?
A: The survivor count was 1 of 3.

Q: For `Cc1ccc(C#CP(C#Cc2ccc(C)cc2)C#Cc2ccc(C)cc2)cc1`, which survivor count (dose: 50.0 mg/kg/injection, schedule: Q01DX009 (ip), vehicle: saline with Tween-80) is on record?
A: Its survivor count is 3 of 3.

Q: And the survivor count (dose: 200.0 mg/kg/injection, schedule: Q01DX009 (ip), vehicle: saline with Tween-80)?
A: The survivor count was 3 of 3.

Q: Which results are given for `CNCCCNCC(Cc1ccccc1)c1ccccc1` (configuration not stated)?
A: survivor count (dose: 200.0 mg/kg/injection, schedule: Q04DX002 (ip), vehicle: saline): 0 of 3; survivor count [2]: 0 of 3

Q: For `CCCCSCCOC(=O)C1C2CCC(O2)C1C(=O)O` (configuration not stated), which survivor count (dose: 50.0 mg/kg/injection, schedule: Q04DX003 (ip), vehicle: Klucel (hydroxypropylcellulose) (HPC)) is on record?
A: Its survivor count is 0 of 6.

Q: What about the survivor count [3] of the same compound?
A: The survivor count was 0 of 6.

Q: What about the survivor count [4] of the same compound?
A: Its survivor count is 0 of 6.

Q: What about the survivor count [5] of the same compound?
A: Its survivor count is 0 of 6.

Q: Which survivor count (dose: 26.6 mg/kg/injection, schedule: Q01DX Z (ip), vehicle: saline) does the source give for `NCC(=O)O.[Co]` here?
A: Its survivor count is 0 of 6.

Q: `Cc1ccc(N2C=[N+](C)c3ccc(C)cc3C2)cc1` was tested. Which survivor count [5] did it give?
A: The survivor count was 5 of 6.

Q: Which survivor count (dose: 100.0 mg/kg/injection, schedule: Q01DX001 (ip), vehicle: other) does the source give for `CCOC(=O)c1cc2ccccc2oc1=O` here?
A: Its survivor count is 0 of 4.

Q: And the survivor count (dose: 200.0 mg/kg/injection, schedule: Q01DX001 (ip), vehicle: other)?
A: The survivor count was 0 of 4.

Q: What about the survivor count (dose: 200.0 mg/kg/injection, schedule: Q04DX003 (ip), vehicle: saline with Tween-80) of the same compound?
A: The survivor count was 0 of 6.

Q: What about the survivor count (dose: 400.0 mg/kg/injection, schedule: Q01DX001 (ip), vehicle: other) of the same compound?
A: The survivor count was 0 of 4.

Q: How did the survivor count [6] turn out when `C[S+]1CCSCC1` was run?
A: The survivor count was 4 of 6.

Q: And the survivor count [7]?
A: The survivor count was 2 of 6.

Q: What about the survivor count [8] of the same compound?
A: The survivor count was 0 of 6.

Q: Which survivor count (dose: 30.0 mg/kg/injection, schedule: Q01DX015 (ip), vehicle: carboxymethylcellulose (CMC)) does the source give for `CCOc1cc(/C=N\Nc2nnc(C)n2N)c(C)cc1N(CCCl)CCCl` here?
A: Its survivor count is 5 of 6.

Q: What about the T/C (dose: 44.0 mg/kg/injection, schedule: Q01DX001 (ip), vehicle: carboxymethylcellulose (CMC)) of the same compound?
A: Its T/C is 129 % of control.

Q: And the survivor count (dose: 50.0 mg/kg/injection, schedule: Q01DX015 (ip), vehicle: carboxymethylcellulose (CMC))?
A: Its survivor count is 6 of 6.

Q: What about the T/C (dose: 100.0 mg/kg/injection, schedule: Q01DX001 (ip), vehicle: carboxymethylcellulose (CMC)) of the same compound?
A: Its T/C is 142 % of control.

Q: And the survivor count [9]?
A: The survivor count was 4 of 4.

Q: Which survivor count (dose: 62.5 mg/kg/injection, schedule: Q04DX003 (ip), vehicle: saline) does the source give for `CN=C(N)N/N=C/c1ccccc1` here?
A: Its survivor count is 0 of 6.

Q: And the survivor count (dose: 125.0 mg/kg/injection, schedule: Q04DX003 (ip), vehicle: saline)?
A: Its survivor count is 0 of 6.

Q: And the survivor count (dose: 250.0 mg/kg/injection, schedule: Q04DX003 (ip), vehicle: saline)?
A: The survivor count was 0 of 6.

Q: How did the survivor count (dose: 400.0 mg/kg/injection, schedule: Q01DX001 (ip), vehicle: saline) turn out when `CC(=O)N(c1ccccn1)c1ccccn1` was run?
A: The survivor count was 3 of 6.

Q: And the survivor count [8]?
A: Its survivor count is 2 of 6.

Q: With `CC1=CC(=O)C(Sc2ccc(C)cc2)=CC1=O` as the compound, how does the survivor count (dose: 300.0 mg/kg/injection, schedule: Q01DX001 (ip), vehicle: other) read?
A: The survivor count was 3 of 6.

Q: How did the survivor count [5] turn out when `CN(C)c1ccc(NC(=O)NCCCl)cc1` was run?
A: Its survivor count is 6 of 6.

Q: For `CCN(CC)CCSC(=S)N1c2ccccc2Sc2ccccc21`, which survivor count (dose: 280.0 mg/kg/injection, schedule: Q01DX009 (ip), vehicle: saline) is on record?
A: Its survivor count is 2 of 6.

Q: Which survivor count (dose: 400.0 mg/kg/injection, schedule: Q04DX002 (ip), vehicle: saline with Tween-80) does the source give for `CCOC(=O)NNC(=S)Nc1cccc(C(F)(F)F)c1` here?
A: Its survivor count is 1 of 3.

Q: How did the survivor count (dose: 25.0 mg/kg/injection, schedule: Q04DX003 (ip), vehicle: Klucel (hydroxypropylcellulose) (HPC)) turn out when `CCOC(=O)c1c[n]([Hg][n]2cc(C(=O)OCC)c(Nc3ccccc3Br)nc2=O)c(=O)nc1Nc1ccccc1Br` was run?
A: Its survivor count is 2 of 6.

Q: What about the survivor count [3] of the same compound?
A: Its survivor count is 0 of 6.

Q: And the survivor count [4]?
A: The survivor count was 0 of 6.

Q: What about the survivor count [5] of the same compound?
A: Its survivor count is 0 of 6.

Q: `CN(C)N=Nc1ccccc1I` was tested. Which survivor count (dose: 800.0 mg/kg/injection, schedule: Q01DX009 (ip), vehicle: Klucel (hydroxypropylcellulose) (HPC)) did it give?
A: Its survivor count is 3 of 6.

Q: Which survivor count [3] does the source give for `O=C(O)/C(=C\c1ccc(Cl)cc1)c1cccc2ccccc12` here?
A: The survivor count was 6 of 6.

Q: And the survivor count [1]?
A: Its survivor count is 0 of 6.

Q: `Nc1nc2ccc(CNc3ccc(C(=O)NC(CC(=O)O)C(=O)O)cc3)cc2c(=O)[nH]1` (configuration not stated) was tested. Which T/C [6] did it give?
A: The T/C was 142 % of control.

Q: What about the T/C [7] of the same compound?
A: Its T/C is 133 % of control.

Q: And the survivor count (dose: 400.0 mg/kg/injection, schedule: Q01DX001 (ip), vehicle: saline with Tween-80)?
A: The survivor count was 3 of 6.

Q: And the survivor count [8]?
A: Its survivor count is 3 of 6.

Q: What does the source list for `CC(C)(C)c1ccc(CN2CCN(C(c3ccccc3)c3ccc(Cl)cc3)CC2)cc1` (configuration not stated)?
A: survivor count (dose: 100.0 mg/kg/injection, schedule: Q01DX009 (ip), vehicle: Klucel (hydroxypropylcellulose) (HPC)): 4 of 6; survivor count (dose: 200.0 mg/kg/injection, schedule: Q01DX009 (ip), vehicle: Klucel (hydroxypropylcellulose) (HPC)): 0 of 6; survivor count [5]: 1 of 4

Q: What does the source list for `CC1=CC(C)(C)NC(=S)N1CCO`?
A: survivor count (dose: 49.0 mg/kg/injection, schedule: Q01DX Z (ip), vehicle: methylcellulose (MC)): 5 of 6; survivor count (dose: 112.0 mg/kg/injection, schedule: Q01DX Z (ip), vehicle: methylcellulose (MC)): 4 of 6; survivor count (dose: 168.0 mg/kg/injection, schedule: Q01DX Z (ip), vehicle: methylcellulose (MC)): 3 of 6; survivor count (dose: 400.0 mg/kg/injection, schedule: Q04DX002 (ip), vehicle: Klucel (hydroxypropylcellulose) (HPC)): 1 of 3

Q: Which survivor count [9] does the source give for `O=P(O)(O)c1ccccc1` here?
A: The survivor count was 3 of 4.

Q: Which survivor count (dose: 30.0 mg/kg/injection, schedule: Q01DX Z (ip), vehicle: saline) does the source give for `CC(=O)Nc1cc(C(=O)Nc2ccc(C3=NCCN3)cc2)ccc1C(=O)Nc1ccc(C2=NCCN2)cc1` here?
A: Its survivor count is 0 of 6.

Q: And the survivor count (dose: 60.0 mg/kg/injection, schedule: Q01DX Z (ip), vehicle: saline)?
A: The survivor count was 0 of 6.

Q: What about the survivor count (dose: 120.0 mg/kg/injection, schedule: Q01DX Z (ip), vehicle: saline) of the same compound?
A: Its survivor count is 0 of 6.

Q: How did the survivor count (dose: 300.0 mg/kg/injection, schedule: Q01DX001 (ip), vehicle: carboxymethylcellulose (CMC)) turn out when `CNCCc1cc2c(c(OC)c1/C=C/C(=O)/C=C/c1c(CCNC)cc3c(c1OC)OCO3)OCO2` was run?
A: Its survivor count is 5 of 6.

Q: `Cc1ccc(SC(=O)CCl)cc1` was tested. Which T/C (dose: 100.0 mg/kg/injection, schedule: Q01DX009 (ip), vehicle: gum acacia) did it give?
A: Its T/C is 137 % of control [5 of 6 alive].

Q: And the survivor count (dose: 400.0 mg/kg/injection, schedule: Q01DX009 (ip), vehicle: gum acacia)?
A: The survivor count was 4 of 6.

Q: How did the survivor count (dose: 50.0 mg/kg/injection, schedule: Q01DX009 (ip), vehicle: Klucel (hydroxypropylcellulose) (HPC)) turn out when `COc1ccc(C(=O)CBr)c(OC)c1C` was run?
A: The survivor count was 5 of 6.

Q: And the survivor count [3]?
A: The survivor count was 1 of 6.

Q: What about the survivor count [4] of the same compound?
A: The survivor count was 0 of 6.

Q: What about the survivor count [5] of the same compound?
A: Its survivor count is 2 of 6.

From PubChem BioAssay AID248 (DTP/NCI, 2004)
